Reference: article doi:10.1101/2021.09.02.458712
Results are given in words; binding and its absence hold for the method and conditions named. In cells and extracts the contact can be indirect. Where a sequence is shown, tags or fusion partners need not be part of it.

Protein sequences, listed by entry. Tags and fused reporters are not part of them.
UniProt Q86UU1: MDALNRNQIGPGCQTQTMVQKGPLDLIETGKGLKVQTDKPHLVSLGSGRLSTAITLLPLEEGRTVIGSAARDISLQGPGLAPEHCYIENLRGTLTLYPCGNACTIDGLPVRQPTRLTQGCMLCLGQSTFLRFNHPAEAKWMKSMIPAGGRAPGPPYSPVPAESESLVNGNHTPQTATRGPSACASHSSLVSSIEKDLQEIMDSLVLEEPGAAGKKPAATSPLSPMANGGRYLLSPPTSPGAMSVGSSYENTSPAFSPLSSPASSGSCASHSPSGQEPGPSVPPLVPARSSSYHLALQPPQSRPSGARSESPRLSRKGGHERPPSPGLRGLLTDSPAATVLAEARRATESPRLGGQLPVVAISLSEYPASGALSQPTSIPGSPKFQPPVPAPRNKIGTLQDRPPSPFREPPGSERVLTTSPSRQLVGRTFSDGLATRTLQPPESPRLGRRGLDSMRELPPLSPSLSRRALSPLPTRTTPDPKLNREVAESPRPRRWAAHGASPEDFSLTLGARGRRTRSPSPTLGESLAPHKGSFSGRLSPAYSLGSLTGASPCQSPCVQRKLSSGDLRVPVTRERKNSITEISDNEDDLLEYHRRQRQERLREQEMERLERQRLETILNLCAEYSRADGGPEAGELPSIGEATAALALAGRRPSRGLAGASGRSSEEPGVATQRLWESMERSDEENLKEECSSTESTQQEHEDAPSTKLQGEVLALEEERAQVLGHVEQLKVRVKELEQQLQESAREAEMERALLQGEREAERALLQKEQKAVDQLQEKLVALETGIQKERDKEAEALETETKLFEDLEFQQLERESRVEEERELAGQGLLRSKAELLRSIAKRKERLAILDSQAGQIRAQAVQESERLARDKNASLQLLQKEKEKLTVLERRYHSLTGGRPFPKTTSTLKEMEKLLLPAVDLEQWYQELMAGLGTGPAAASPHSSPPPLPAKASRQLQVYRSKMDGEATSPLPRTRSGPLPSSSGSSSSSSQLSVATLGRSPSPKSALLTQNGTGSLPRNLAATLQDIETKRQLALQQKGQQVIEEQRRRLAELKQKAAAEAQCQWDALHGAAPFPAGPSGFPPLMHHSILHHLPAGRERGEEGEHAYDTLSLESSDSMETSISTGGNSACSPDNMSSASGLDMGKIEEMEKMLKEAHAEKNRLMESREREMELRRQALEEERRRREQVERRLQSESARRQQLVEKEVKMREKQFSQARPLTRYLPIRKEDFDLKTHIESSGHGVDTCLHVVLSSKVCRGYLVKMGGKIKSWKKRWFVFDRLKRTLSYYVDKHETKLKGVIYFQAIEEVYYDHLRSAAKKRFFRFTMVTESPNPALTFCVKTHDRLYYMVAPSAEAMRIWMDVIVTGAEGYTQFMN

Target: T1, FLAG-PRICKLE1 (UniProt Q96MT3)
T1 sequence: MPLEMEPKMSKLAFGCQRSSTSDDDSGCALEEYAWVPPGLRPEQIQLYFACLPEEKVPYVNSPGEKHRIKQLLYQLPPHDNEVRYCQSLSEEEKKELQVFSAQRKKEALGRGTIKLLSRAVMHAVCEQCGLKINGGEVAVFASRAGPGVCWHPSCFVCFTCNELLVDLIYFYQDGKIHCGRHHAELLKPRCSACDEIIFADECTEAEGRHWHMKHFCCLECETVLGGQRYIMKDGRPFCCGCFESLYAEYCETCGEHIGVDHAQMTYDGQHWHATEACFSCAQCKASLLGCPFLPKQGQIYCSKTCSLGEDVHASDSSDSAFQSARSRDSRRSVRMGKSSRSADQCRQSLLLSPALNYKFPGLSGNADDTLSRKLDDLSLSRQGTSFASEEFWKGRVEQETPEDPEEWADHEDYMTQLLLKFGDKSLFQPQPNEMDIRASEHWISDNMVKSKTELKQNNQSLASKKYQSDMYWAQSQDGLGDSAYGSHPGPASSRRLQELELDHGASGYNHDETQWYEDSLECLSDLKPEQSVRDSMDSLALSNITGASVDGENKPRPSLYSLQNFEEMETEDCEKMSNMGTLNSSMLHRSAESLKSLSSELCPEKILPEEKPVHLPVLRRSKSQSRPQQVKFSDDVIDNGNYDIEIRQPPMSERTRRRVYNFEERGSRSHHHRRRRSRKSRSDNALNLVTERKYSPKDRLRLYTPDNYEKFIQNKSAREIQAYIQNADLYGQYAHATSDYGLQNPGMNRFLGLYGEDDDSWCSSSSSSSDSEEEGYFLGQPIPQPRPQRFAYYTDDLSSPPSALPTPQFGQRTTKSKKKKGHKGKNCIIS
Test: co-IP

binding: no binding
Substance: GFP-LL5α (from UniProt Q86UU1 1-1377)
